Measured values: PMC11615823
No constants are given. Whether binding was seen depends on the method and setting. For some of these results: In cells and extracts the contact can be indirect. Some entries that bind do so weakly or less than the wild type.

By UniProt entry, the sequences of proteins in these tests, tags left out. Residues count along the entry.
UniProt P55036: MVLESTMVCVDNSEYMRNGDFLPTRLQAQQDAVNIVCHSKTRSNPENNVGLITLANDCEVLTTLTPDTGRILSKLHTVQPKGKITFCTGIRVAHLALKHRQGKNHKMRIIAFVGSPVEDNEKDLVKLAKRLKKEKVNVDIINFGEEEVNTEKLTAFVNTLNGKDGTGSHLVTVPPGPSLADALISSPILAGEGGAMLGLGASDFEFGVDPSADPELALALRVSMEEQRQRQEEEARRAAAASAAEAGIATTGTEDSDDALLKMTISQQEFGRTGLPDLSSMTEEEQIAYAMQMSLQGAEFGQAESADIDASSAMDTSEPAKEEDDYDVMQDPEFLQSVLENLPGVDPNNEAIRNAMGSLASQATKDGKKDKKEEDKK
UniProt P35916, residues 25-1363: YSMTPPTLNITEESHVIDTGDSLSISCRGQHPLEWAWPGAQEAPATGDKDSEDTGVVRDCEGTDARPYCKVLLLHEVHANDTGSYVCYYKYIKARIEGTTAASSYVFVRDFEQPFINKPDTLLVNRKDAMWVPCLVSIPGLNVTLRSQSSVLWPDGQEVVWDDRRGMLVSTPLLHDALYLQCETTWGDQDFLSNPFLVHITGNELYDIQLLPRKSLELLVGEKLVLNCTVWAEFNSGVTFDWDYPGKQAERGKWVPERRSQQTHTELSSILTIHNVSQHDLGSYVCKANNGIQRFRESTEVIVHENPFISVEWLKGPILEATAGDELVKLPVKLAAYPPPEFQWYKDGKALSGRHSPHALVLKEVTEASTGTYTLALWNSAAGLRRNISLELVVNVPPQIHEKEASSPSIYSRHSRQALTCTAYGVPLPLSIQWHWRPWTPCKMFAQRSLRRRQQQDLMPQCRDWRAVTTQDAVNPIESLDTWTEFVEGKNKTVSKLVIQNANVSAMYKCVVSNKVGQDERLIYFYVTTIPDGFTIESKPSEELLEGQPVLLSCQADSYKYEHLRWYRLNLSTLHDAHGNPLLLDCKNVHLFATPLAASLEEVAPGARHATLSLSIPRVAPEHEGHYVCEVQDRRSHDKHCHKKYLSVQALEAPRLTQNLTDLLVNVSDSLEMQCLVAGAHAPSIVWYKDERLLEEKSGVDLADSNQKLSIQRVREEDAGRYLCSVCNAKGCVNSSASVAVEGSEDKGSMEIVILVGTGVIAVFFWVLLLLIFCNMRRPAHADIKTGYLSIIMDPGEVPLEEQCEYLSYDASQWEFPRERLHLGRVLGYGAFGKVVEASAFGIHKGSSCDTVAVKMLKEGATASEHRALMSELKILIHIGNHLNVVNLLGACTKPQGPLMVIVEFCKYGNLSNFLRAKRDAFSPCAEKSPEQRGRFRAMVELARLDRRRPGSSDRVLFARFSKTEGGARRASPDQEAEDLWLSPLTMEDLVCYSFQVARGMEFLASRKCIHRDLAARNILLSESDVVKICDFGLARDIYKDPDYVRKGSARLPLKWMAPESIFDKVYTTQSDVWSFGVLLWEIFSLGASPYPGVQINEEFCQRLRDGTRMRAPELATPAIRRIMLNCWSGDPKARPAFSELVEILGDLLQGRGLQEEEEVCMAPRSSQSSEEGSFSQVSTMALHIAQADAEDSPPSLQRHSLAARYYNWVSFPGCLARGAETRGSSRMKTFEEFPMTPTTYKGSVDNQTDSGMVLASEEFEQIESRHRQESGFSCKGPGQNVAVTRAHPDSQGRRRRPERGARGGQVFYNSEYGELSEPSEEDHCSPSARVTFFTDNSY
UniProt P11362, residues 22-822: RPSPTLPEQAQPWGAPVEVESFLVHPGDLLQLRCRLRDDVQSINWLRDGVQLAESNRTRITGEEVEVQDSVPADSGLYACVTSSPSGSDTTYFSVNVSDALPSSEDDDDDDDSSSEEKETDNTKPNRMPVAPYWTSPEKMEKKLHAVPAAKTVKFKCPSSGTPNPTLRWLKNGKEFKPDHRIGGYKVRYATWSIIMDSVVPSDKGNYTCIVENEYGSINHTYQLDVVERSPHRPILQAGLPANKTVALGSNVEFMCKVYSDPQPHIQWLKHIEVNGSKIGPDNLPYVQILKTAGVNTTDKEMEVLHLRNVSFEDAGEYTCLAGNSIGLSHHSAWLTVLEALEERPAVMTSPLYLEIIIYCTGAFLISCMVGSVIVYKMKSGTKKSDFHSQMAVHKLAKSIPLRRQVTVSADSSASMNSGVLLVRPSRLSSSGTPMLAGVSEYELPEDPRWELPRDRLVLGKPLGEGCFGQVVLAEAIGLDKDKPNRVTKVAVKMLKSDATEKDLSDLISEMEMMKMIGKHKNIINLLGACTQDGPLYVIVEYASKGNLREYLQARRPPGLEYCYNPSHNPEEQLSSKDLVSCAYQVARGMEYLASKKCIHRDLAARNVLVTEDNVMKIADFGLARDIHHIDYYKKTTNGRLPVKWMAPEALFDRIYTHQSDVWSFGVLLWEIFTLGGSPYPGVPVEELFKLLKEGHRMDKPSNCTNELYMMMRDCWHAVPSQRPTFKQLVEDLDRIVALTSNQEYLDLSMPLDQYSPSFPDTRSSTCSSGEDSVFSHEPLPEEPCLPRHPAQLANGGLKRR

How the values were obtained:
endogenous MCB1 = endogenous MCB1 (UniProt P55036); assay: co-IP; co-IP of endogenous proteins; cells and precipitating antibody not stated in the text (Figure S8G)
[1] = biological target: purified GST-MCB1 (human) (UniProt P55036); assay: pull-down; GST bead pull-down of purified GST-MCB1 with recombinant p53, FGFR1 or VEGFR3; both purified

Row | binding (endogenous MCB1) | binding [1] | Substance
1 | binds |  | vascular endothelial growth factor receptor 3 (VEGFR3), endogenous (from UniProt P35916 25-1363)
2 |  | binds | recombinant FGFR1 (from UniProt P11362 22-822) (receptor)
3 | binds |  | fibroblast growth factor receptor 1 (FGFR1), endogenous (from UniProt P11362 22-822)
4 |  | binds | recombinant VEGFR3 (from UniProt P35916 25-1363) (receptor)
